Source: PubChem BioAssay AID2685 (National Center for Advancing Translational Sciences (NCATS), 2010)
Some of the results follow. Further columns of the screen follow, without active or inactive calls. The list favours compounds with an active or inconclusive main result. Potencies come from curve fits of mixed quality, noted in brackets.

Test: qHTS Assay for Lipid Storage Modulators in Drosophila S3 Cells;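 as to cell number change: cells counted by Cell Tracker Red CMTPX staining in the red channel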
Conditions: BODIPY lipid droplet fluorescence, 18-24 h; for cell number change: measured here: cell count max response, cells fed with added oleic acid
In short: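 Laser-scanning cytometry quantifies lipid droplet accumulation (500–530 nm total intensity; droplet/cell object ratio) in oleic acid-fed (400 uM added) Drosophila S3 cells treated with a concentration series. 20 uM Triacsin C defined 100% inhibition.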

[1] = measured here: lipid fluorescence (Fed channel) AC50, cells fed with added oleic acid
[2] = measured here: cell number channel AC50, cells fed with added oleic acid

Structure (SMILES)	cell number change	AC50 [1]	AC50 [2]
C[C@H]1CCC(=O)N([C@H](CN=[N+]=[N-])Cc2ccccc2)CC1	-3.88%	–	–
COc1cc(OC)c(C(=O)Nc2cccnc2)cc1OC	-8.99%	29.1 µM [falling, single point]	–
Cn1c(=O)c2c(ncn2CCCC(=N)N2CCOCC2)n(C)c1=O	-36.3%	7.31 µM [falling, partial curve]	10.3 µM [falling, partial curve]
CCOC(=O)N1CCN(S(=O)(=O)N2CCCC(C(=O)NC(C)c3ccccc3)C2)CC1 (centres undefined)	1.71%	–	–
Cc1cnc(CN(C)C(=O)CC2C(=O)NCCN2Cc2cccc(F)c2F)[nH]1 (centres undefined)	2.93%	–	–
O=C(Nc1nn[nH]n1)c1ccc(S(=O)(=O)N2CCCCC2)cc1	-9.36%	–	0.116 µM [falling, full curve, poor fit]
O=c1c2c3c(sc2n(CCN2CCCCC2)c(=O)n1Cc1ccco1)CCCCC3	113%	2.31 µM [rising, partial curve]	5.17 µM [rising, partial curve]
CCn1c(SCC(=O)Nc2ccccc2Br)nnc1-c1cnccn1	–	3.26 µM [rising, single point]	–
O=C(Cc1ccccc1)N/N=C/c1ccc(Cl)cc1Cl	-50.2%	20.6 µM [falling, partial curve]	20.6 µM [falling, partial curve]
CCNC(=O)N1CCCC(C(=O)c2ccc(OC)c(OC)c2)C1 (centres undefined)	-25.5%	14.6 µM [falling, partial curve, poor fit]	–
COc1ccc(Cc2nnc(Nc3ccccc3)s2)cc1Br	-12.5%	29.1 µM [rising, single point]	–
COc1ccc(/C=C/c2cc(-c3ccc(C)cc3)o[n+]2C)cc1	-63.8%	8.2 µM [falling, partial curve]	10.3 µM [falling, partial curve]
CC1=Nn2c(nnc2-c2ccccc2)SC1	41%	16.4 µM [rising, partial curve]	11.6 µM [rising, partial curve, poor fit]
Cc1ccc(-c2noc(/C=C/c3ccccc3)n2)cc1	38%	1.3 µM [rising, full curve]	9.2 µM [rising, partial curve, poor fit]
Cc1nnc(SCc2ccc3c(c2)OCO3)s1	-5.54%	0.00461 µM [rising, full curve, poor fit]	–
C=CCOc1ccc(/C=C/C(C)=N\O)cc1	-32.4%	–	32.6 µM [falling, single point]

Rewritten with bars between the fields: part of the list above.
Structure (SMILES) | cell number change | AC50 [1] | AC50 [2]
COc1ccc(/C=C/c2cc(-c3ccc(C)cc3)o[n+]2C)cc1 | -63.8% | 8.2 µM [falling, partial curve] | 10.3 µM [falling, partial curve]
CC1=Nn2c(nnc2-c2ccccc2)SC1 | 41% | 16.4 µM [rising, partial curve] | 11.6 µM [rising, partial curve, poor fit]
